Values joined by “and” are separate entries in the source; they are usually repeats but may differ in a detail not shown here. Equal values may be shown once. For at least one compound, name, drawing or mass did not settle the structure.
What was measured:
Assay type in all cases: physicochemical
[1] = Water content by Karl Fisher; conditions: for Water Content (KF) / Water Content: summary table; for Water Content (KF): first Water Content column; for Water Content: second Water Content column (overall range); for Hydration: hydrated state assigned from water content
[2] = Exposure to controlled relative humidity: water uptake and crystal form
Weight loss by TGA = experiment: Weight loss by TGA
[3] = equilibrated at 20% RH for 11 days
[4] = equilibrated at 40% RH for 11 days
[5] = equilibrated at 60% RH for 11 days

| SMILES | Water content measured by Karl Fisher [1] | Water Content (KF) [1] | Weight loss by TGA (Weight loss by TGA) | Hydration [1] | also measured |
| --- | --- | --- | --- | --- | --- |
| CC(C)n1c(/C=C/C(O)CC(O)CC(=O)O)c(-c2ccc(F)cc2)c2ccccc21 (single isomer, unassigned) [Form VII, fluvastatin sodium] | 4.1-4.5 wt. % | 4.1%-4.5% | 13-14 wt. % | – | Water Content [1]: 1-9%; Equilibrated water content ([2]; 20-60% RH for 11 days): 1.4-8.6%; Water Content by KF [2, 3]: 1.4-4.8%; Weight loss by TGA [2, 3]: 8.4%; Water Content by KF [2, 4]: 3.5-4.8%; Weight loss by TGA [2, 4]: 10.1%; Water Content by KF [2, 5]: 6.6-8.6%; Weight loss by TGA [2, 5]: 9.6%; Weight loss by TGA ([2]; equilibrated at 80% RH for 11 days): 19.0%; Weight loss by TGA ([2]; equilibrated at 100% RH for 11 days): 17.6%; Weight loss by TGA (Weight loss by TGA; listed as VII): 13-14% TGA + |
| CC(C)n1c(/C=C/C(O)CC(O)CC(=O)O)c(-c2ccc(F)cc2)c2ccccc21 (stereo not shown) [Form IV, fluvastatin sodium] | about 4 wt. % | 4% KF | 8.3% | – | Water Content [1]: 4%; Weight loss by TGA (Weight loss by TGA; listed as IV): 8.3% TGA |
| CC(C)n1c(/C=C/C(O)CC(O)CC(=O)O)c(-c2ccc(F)cc2)c2ccccc21 (stereo not shown) [Form L, fluvastatin sodium] | 5-6 % by weight | 5-6% KF | about 7 % by weight | sesquihydrate (sesquihydrate (water content about 5-6%)) | Hydration ([1]; listed as L): Sesquihydrate; Weight loss by TGA (Weight loss by TGA; listed as L): 7% TGA |
| CC(C)n1c(/C=C/C(O)CC(O)CC(=O)O)c(-c2ccc(F)cc2)c2ccccc21 (stereo not shown) [Form LIV, fluvastatin sodium] | about 11 % by weight | 11% KF | about 11 % by weight | trihydrate (trihydrate (water content about 11-13%)) | Hydration ([1]; listed as LIV): Trihydrate; Weight loss by TGA (Weight loss by TGA; listed as LIV): 11% TGA |
| CC(C)n1c(/C=C/C(O)CC(O)CC(=O)O)c(-c2ccc(F)cc2)c2ccccc21 (stereo not shown) [Form LV, fluvastatin sodium] | about 7 % by weight | 7% KF | about 7 % by weight | dihydrate (dihydrate (water content about 7-8%)) | Hydration ([1]; listed as LV): Dihydrate; Weight loss by TGA (Weight loss by TGA; listed as LV): 7% TGA |
| CC(C)n1c(/C=C/C(O)CC(O)CC(=O)O)c(-c2ccc(F)cc2)c2ccccc21 (stereo not shown) [Form LVII, fluvastatin sodium] | about 2 % by weight | 2% KF | about 2 % by weight | hemihydrate (hemihydrate (water content about 2%)) | Hydration ([1]; listed as LVII): hemihydrate (hemihydrate (water content about 2%)); Weight loss by TGA (Weight loss by TGA; listed as LVII): 2% TGA |
| CC(C)n1c(/C=C/C(O)CC(O)CC(=O)O)c(-c2ccc(F)cc2)c2ccccc21 (stereo not shown) [Form LVIII, fluvastatin sodium] | 4-5 % by weight | 4.6% KF | 6-7 % by weight | – | Weight loss by TGA (Weight loss by TGA; listed as LVIII): 6.4% TGA |
| CC(C)n1c(/C=C/C(O)CC(O)CC(=O)O)c(-c2ccc(F)cc2)c2ccccc21 (stereo not shown) [Form XIV, fluvastatin sodium] | – | – | – | dihydrate (dihydrate (water content about 7-8%)) | – |
| CC(C)n1c(/C=C/C(O)CC(O)CC(=O)O)c(-c2ccc(F)cc2)c2ccccc21 (stereo not shown) [Form XIX, fluvastatin sodium] | 19-28 wt. % | 19-28% KF | 22-26 wt. % | – | Water Content [1]: 19-28%; Weight loss by TGA (Weight loss by TGA; listed as XIX): 22-26% TGA |
| CC(C)n1c(/C=C/C(O)CC(O)CC(=O)O)c(-c2ccc(F)cc2)c2ccccc21 (stereo not shown) [Form XIX-1, fluvastatin sodium] | about 8 % by weight | 8% KF | about 7 % by weight | Dihydrate | Weight loss by TGA (Weight loss by TGA; listed as XIX-1): 7% TGA |
| CC(C)n1c(/C=C/C(O)CC(O)CC(=O)O)c(-c2ccc(F)cc2)c2ccccc21 (stereo not shown) [Form XLI, fluvastatin sodium] | about 9 % by weight | 9% KF | about 9 % by weight | hemipentahydrate (hemipentahydrate (water content about 9-10%)) | Hydration ([1]; listed as XLI): monohydrate (monohydrate (water content about 3-4%)); Weight loss by TGA (Weight loss by TGA; listed as XLI): 9% TGA |
| CC(C)n1c(/C=C/C(O)CC(O)CC(=O)O)c(-c2ccc(F)cc2)c2ccccc21 (stereo not shown) [Form XLII, fluvastatin sodium] | about 4 % by weight | 4% KF | about 5 % by weight | monohydrate (monohydrate (water content about 3-4%)) | Weight loss by TGA (Weight loss by TGA; listed as XLII): 5% TGA |
| CC(C)n1c(/C=C/C(O)CC(O)CC(=O)O)c(-c2ccc(F)cc2)c2ccccc21 (stereo not shown) [Form XLIII, fluvastatin sodium] | 9-11 % by weight | 9-11% KF | about 12 % by weight | – | Weight loss by TGA (Weight loss by TGA; listed as XLIII): 12% TGA |
| CC(C)n1c(/C=C/C(O)CC(O)CC(=O)O)c(-c2ccc(F)cc2)c2ccccc21 (stereo not shown) [Form XLIV, fluvastatin sodium] | 4-6 % by weight | 4-6% KF | 8-10 % by weight | – | Weight loss by TGA (Weight loss by TGA; listed as XLIV): 8-10% TGA |
| CC(C)n1c(/C=C/C(O)CC(O)CC(=O)O)c(-c2ccc(F)cc2)c2ccccc21 (stereo not shown) [Form XLVIII, fluvastatin sodium] | 6-8 % by weight | 6-8% KF | about 8 % by weight | Dihydrate | Weight loss by TGA (Weight loss by TGA; listed as XLVIII): 8% TGA |
| CC(C)n1c(/C=C/C(O)CC(O)CC(=O)O)c(-c2ccc(F)cc2)c2ccccc21 (stereo not shown) [Form XV, fluvastatin sodium] | – | – | – | – | Crystal form recovered ([2]; about 100% RH for 14 days): Form XXII |
| CC(C)n1c(/C=C/C(O)CC(O)CC(=O)O)c(-c2ccc(F)cc2)c2ccccc21 (stereo not shown) [Form XVII, fluvastatin sodium] | – | – | 8.4 wt. % | – | Water Content [1]: 8%; Weight loss by TGA (Weight loss by TGA; listed as XVII): 8.4% TGA |
| CC(C)n1c(/C=C/C(O)CC(O)CC(=O)O)c(-c2ccc(F)cc2)c2ccccc21 (stereo not shown) [Form XX, fluvastatin sodium] | about 19 wt. % | 19% KF | about 19 wt. % | hexahydrate (hexahydrate (water content about 19-20%)) | Hydration ([1]; listed as XX): hexahydrate (hexahydrate (water content about 19-20%)); Water Content [1]: 19%; Weight loss by TGA (Weight loss by TGA; listed as XX): 19% TGA |
| CC(C)n1c(/C=C/C(O)CC(O)CC(=O)O)c(-c2ccc(F)cc2)c2ccccc21 (stereo not shown) [Form XXX, fluvastatin sodium] | about 4 % by weight | 4% KF | about 10% | – | Weight loss by TGA (Weight loss by TGA; listed as XXX): 10% TGA |
| CC(C)n1c(/C=C/C(O)CC(O)CC(=O)O)c(-c2ccc(F)cc2)c2ccccc21 (stereo not shown) [Form XXXI, fluvastatin sodium] | about 16 % by weight | 16% KF | about 10 % by weight | tetrahydrate (tetrahydrate (water content about 14-16%)) | Hydration ([1]; listed as XXXI): Tetrahydrate; Weight loss by TGA (Weight loss by TGA; listed as XXXI): 16% TGA |
| CC(C)n1c(/C=C/C(O)CC(O)CC(=O)O)c(-c2ccc(F)cc2)c2ccccc21 (stereo not shown) [Form XXXIII, fluvastatin sodium] | – | 7% KF and 9.5% KF | about 7% | – | Weight loss by TGA (Weight loss by TGA; listed as XXXIII): 7% TGA and 10.7% TGA |
| CC(C)n1c(/C=C/C(O)CC(O)CC(=O)O)c(-c2ccc(F)cc2)c2ccccc21 (stereo not shown) [Form XXXIV, fluvastatin sodium] | about 10 % by weight | 10% KF | about 20% | – | Weight loss by TGA (Weight loss by TGA; listed as XXXIV): 20.1% TGA |
| CC(C)n1c(/C=C/C(O)CC(O)CC(=O)O)c(-c2ccc(F)cc2)c2ccccc21 (stereo not shown) [Form XXXV, fluvastatin sodium] | about 15 % by weight | 15% KF | about 31 % by weight | – | Weight loss by TGA (Weight loss by TGA; listed as XXXV): 31% TGA |
| CC(C)n1c(/C=C/C(O)CC(O)CC(=O)O)c(-c2ccc(F)cc2)c2ccccc21 (stereo not shown) [Form XXXVII, fluvastatin sodium] | about 9 % by weight | 9% KF | about 31 % by weight | hemipentahydrate (hemipentahydrate (water content about 9-10%)) | Hydration ([1]; listed as XXXVII): Hemipentahydrate; Weight loss by TGA (Weight loss by TGA; listed as XXXVII): 9% TGA |
| CC(C)n1c(/C=C/C(O)CC(O)CC(=O)O)c(-c2ccc(F)cc2)c2ccccc21 (stereo not shown) [Form XXXVIII, fluvastatin sodium] | 6-7 % by weight | 6-7% KF | 10-11 % by weight | – | Weight loss by TGA (Weight loss by TGA; listed as XXXVIII): 10-11% TGA |

From US7414140B2 (Teva Pharmaceutical Industries Ltd., priority 2003, dated 2008)
